In PubChem BioAssay (EPA / NIEHS):
“And” between values parts separate entries of the source, which are not always exact repeats. Equal entries are not always repeated. The inconclusive results got no clear call from the source; some entries with a clear call stand among them for comparison. Where the call is inconclusive, the potency comes from a doubtful curve fit. Some compounds were tested as several samples or in several runs, with calls that do not always agree. The source made the active and inactive calls. How the source made its calls: active means hit-call score of the fitted dose curve at least 0.9, where 1 is the maximum; inconclusive means response in the unintended direction; inactive means score below 0.9.

The chains behind the UniProt entries cited, without tags or fusion partners. Where a name states a change or a piece, a line headed by the entry shows the natural chain unless it says otherwise.
UniProt P41235: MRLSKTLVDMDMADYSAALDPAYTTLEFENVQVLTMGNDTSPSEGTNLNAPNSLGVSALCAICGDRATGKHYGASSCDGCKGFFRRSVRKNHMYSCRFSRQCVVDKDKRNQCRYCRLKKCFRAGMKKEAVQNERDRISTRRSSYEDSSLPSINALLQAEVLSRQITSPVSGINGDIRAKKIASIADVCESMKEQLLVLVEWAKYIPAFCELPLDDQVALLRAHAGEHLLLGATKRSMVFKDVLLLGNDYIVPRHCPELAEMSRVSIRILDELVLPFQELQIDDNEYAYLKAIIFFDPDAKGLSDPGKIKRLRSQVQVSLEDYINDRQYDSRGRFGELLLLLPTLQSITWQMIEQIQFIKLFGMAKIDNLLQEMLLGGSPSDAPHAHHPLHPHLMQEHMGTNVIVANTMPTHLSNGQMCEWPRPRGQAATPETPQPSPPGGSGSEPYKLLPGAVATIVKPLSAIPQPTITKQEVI

target: Hepatocyte nuclear factor 4-alpha (Homo sapiens) (UniProt P41235); test: ATG_HNF4a_TRANS: Attagene TRANS-FACTORIAL HepG2 Assay for human Hepatocyte Nuclear Factor 4 alpha (HNF4a) (AID 2282982); settings: HepG2 HNF4a transactivation reporter, mRNA readout
How it was run: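 Readout is fluorescent reporter-transcript fragments resolved by capillary electrophoresis after RT-PCR from HepG2 cells dosed for 24 h. Cells carried transfected GAL4-UAS reporter constructs measuring exogenous NR-GAL4 chimera activity; DMSO served as baseline.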

| Compound | outcome | AC50 |
| --- | --- | --- |
| Cn1ccnc1 | inactive | – |
| COC(=O)CC(=O)OC | inactive | – |
| CC(=O)OCCOC(C)=O | inactive | – |
| CCCOc1ccc(S(=O)(=O)N2CCN(CC)CC2)cc1-c1nc2c(CC)n(Cc3ccccn3)nc2c(=O)[nH]1 | – | inconclusive: 100 µM |
| CCN(Cc1cccnc1)C(=O)c1cccc(Cl)c1[C@]1(C)C(=O)N(Cc2ccc(OC)cc2OC)c2ccc(Cl)cc21 | – | inconclusive: 58.4 µM |
| Cc1cc(C)c(C)c(C)c1 | inactive | – |
| O=C1c2ccccc2C(=O)c2cc(S(=O)(=O)O)ccc21 | – | inconclusive: 100 µM |
| Cc1ccc(C(C)C)cc1 | – | inconclusive: 0.449 µM |
| NC(=NCCCCCCN=C(N)/N=C(\N)Nc1ccc(Cl)cc1)/N=C(\N)Nc1ccc(Cl)cc1 | – | active: 25.7 µM |
| COc1cc([N+](=O)[O-])ccc1N | – | inconclusive: 100 µM |
| CC1(C)[C@H]2CC[C@]1(C)C(=O)C2 | – | inconclusive: 100 µM |
| c1ccc2sc(SN(C3CCCCC3)C3CCCCC3)nc2c1 | inactive | – |
| O=C(O)c1[nH]n(-c2ccc(S(=O)(=O)O)cc2)c(=O)c1N=Nc1ccc(S(=O)(=O)O)cc1 | – | inconclusive: 94.5 µM |
| CN(C)c1ccc(C(=C2C=CC(=[N+](C)C)C=C2)c2ccc(N(C)C)cc2)cc1 | – | inconclusive: 2.62 µM |
| O=CC1CC1 | – | inconclusive: 100 µM |
| O=c1n(CCO)c(=O)n(CCO)c(=O)n1CCO | inactive | – |
| OCC(CO)n1cnc(-c2ccc(F)cc2)c1-c1ccnc(Oc2ccccc2)n1 | – | inconclusive: 67.8 µM |
| OCCN1CN(CCO)CN(CCO)C1 | inactive | – |
| CSC(=O)c1cccc2nnsc12 | – | inconclusive: 50 µM |
| C=CC(=O)OCCC(F)(F)C(F)(F)C(F)(F)C(F)(F)F | – | inconclusive: 150 µM |
| OCCCC(F)(F)C(F)(F)C(F)(F)C(F)(F)C(F)(F)C(F)(F)C(F)(F)F | – | inconclusive: 81 µM and inconclusive: 90.4 µM |
| CCCCCCCCn1sc(Cl)c(Cl)c1=O | – | inconclusive: 11.1 µM |
| O=Cc1ccccc1O | inactive | – |
| FC(F)(F)COC(OCC(F)(F)F)OCC(F)(F)F | – | inconclusive: 150 µM |

Copied from the list:
Value of CC1(C)[C@H]2CC[C@]1(C)C(=O)C2 under AC50: inconclusive: 100 µM
Value of COC(=O)CC(=O)OC under outcome: inactive
Value of CCN(Cc1cccnc1)C(=O)c1cccc(Cl)c1[C@]1(C)C(=O)N(Cc2ccc(OC)cc2OC)c2ccc(Cl)cc21 under AC50: inconclusive: 58.4 µM

test system: not listed separately; test: ATG_M_06_TRANS: Attagene TRANS-FACTORIAL HepG2 Assay for M06 Transcription Factor (Internal Marker) (AID 2282983); settings: HepG2 Attagene TRANS M06 internal marker reporter;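 on AC50: potency for rise in reporter mRNA above DMSO baseline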;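 on outcome: reporter transcript level by RT-PCR then capillary electrophoresis fluorescence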
How it was run: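 Internal-marker background readout from a multiplexed TRANS reporter system in HepG2; 24 h dosing; mRNA induction quantified by RT-PCR plus capillary electrophoresis fluorescence; DMSO as negative control and baseline.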

| Compound | AC50 | outcome |
| --- | --- | --- |
| Cn1ccnc1 | inconclusive: 100 µM | – |
| OCCCS | inconclusive: 0.204 µM | – |
| CCCOc1ccc(S(=O)(=O)N2CCN(CC)CC2)cc1-c1nc2c(CC)n(Cc3ccccn3)nc2c(=O)[nH]1 | – | inactive |
| O=c1cccc[nH]1 | – | inactive |
| Cc1cc(C)c(C)c(C)c1 | – | inactive |
| O=C1c2ccccc2C(=O)c2cc(S(=O)(=O)O)ccc21 | inconclusive: 16.3 µM | – |
| Cc1ccc(C(C)C)cc1 | – | inactive |
| NC(=NCCCCCCN=C(N)/N=C(\N)Nc1ccc(Cl)cc1)/N=C(\N)Nc1ccc(Cl)cc1 | active: 23.3 µM | – |
| COc1cc([N+](=O)[O-])ccc1N | inconclusive: 24 µM | – |
| CC1(C)[C@H]2CC[C@]1(C)C(=O)C2 | – | inactive |
| O=CC1CC1 | inconclusive: 100 µM | – |
| O=c1n(CCO)c(=O)n(CCO)c(=O)n1CCO | inconclusive: 6.39 µM | – |
| OCC(CO)n1cnc(-c2ccc(F)cc2)c1-c1ccnc(Oc2ccccc2)n1 | – | inactive |
| OCCN1CN(CCO)CN(CCO)C1 | inconclusive: 0.146 µM | – |
| OCCCC(F)(F)C(F)(F)C(F)(F)C(F)(F)C(F)(F)C(F)(F)C(F)(F)F | active: 79.1 µM and inconclusive: 50 µM | – |
| O=Cc1ccccc1O | inconclusive: 100 µM | – |
| CC(CCC(=O)O)(c1ccc(O)cc1)c1ccc(O)cc1 | inconclusive: 100 µM | – |

test system: not listed separately; test: ATG_M_32_TRANS: Attagene TRANS-FACTORIAL HepG2 Assay for M32 Transcription Factor (Internal Marker) (AID 2282984); settings: HepG2 Attagene TRANS M32 internal marker reporter;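 on outcome: transcript level of a background control reporter unit measured by RT-PCR and capillary electrophoresis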
How it was run: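 Measures reporter mRNA induction in human HepG2 liver cells after 24 h chemical treatment. Transcripts from transiently transfected GAL4-UAS reporter units are amplified, fluorescently labelled and sized by capillary electrophoresis; gain of signal relative to DMSO.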

| Compound | AC50 | outcome |
| --- | --- | --- |
| c1ccc(B(c2ccccc2)c2ccccc2)cc1 | inconclusive: 55.6 nM and inconclusive: 100 µM | inactive |
| Cc1cc(CCN2CCN(c3nsc4ccccc34)CC2)cc2c1NC(=O)CC2(C)C | inconclusive: 11 µM | – |
| CCCCCCCCCCCCOC(=O)c1cc(O)c(O)c(O)c1 | – | inactive |
| Cc1ccc(C(C)C)cc1 | inconclusive: 100 µM | – |
| NC(=NCCCCCCN=C(N)/N=C(\N)Nc1ccc(Cl)cc1)/N=C(\N)Nc1ccc(Cl)cc1 | inconclusive: 22 µM | – |
| COc1cc([N+](=O)[O-])ccc1N | inconclusive: 100 µM | – |
| CC1(C)[C@H]2CC[C@]1(C)C(=O)C2 | – | inactive |
| CCCCCC(C)O (stereo not drawn) | inconclusive: 100 µM | – |
| O=C(O)c1[nH]n(-c2ccc(S(=O)(=O)O)cc2)c(=O)c1N=Nc1ccc(S(=O)(=O)O)cc1 | inconclusive: 7.82 µM | – |
| CC=CCO | – | inactive |
| CSC(=O)c1cccc2nnsc12 | inconclusive: 100 µM and inconclusive: 50 µM | – |
| OCCCC(F)(F)C(F)(F)C(F)(F)C(F)(F)C(F)(F)C(F)(F)C(F)(F)F | inconclusive: 79.7 µM | inactive |
| O=Cc1ccccc1O | – | inactive |
| CC(CCC(=O)O)(c1ccc(O)cc1)c1ccc(O)cc1 | inconclusive: 0.0746 µM | – |
| FC(F)(F)COC(OCC(F)(F)F)OCC(F)(F)F | inconclusive: 150 µM | – |
